Measurements reported in patent US11453711B2, “Fusion proteins of GLP-1 and GDF15 and conjugates thereof” (BEIJING QL BIOPHARMACEUTICAL CO., LTD., priority 2019, dated 2022).

Test: Acylation specificity of 4 lysines (K62, K69, K91, K107) in native GDF15, API digest LC/MS

Work on “Native GDF15: mature domain of native GDF15, SEQ ID NO: 248; control” yielded an Acylation percentage (lysine position 62K on GDF15) of 0%, an Acylation percentage (lysine position 69K on GDF15) of about 14% and an Acylation percentage (lysine position 91K on GDF15) of 100%. The Acylation percentage (lysine position 107K on GDF15) was about 42%.
